Measurements: PubChem BioAssay AID504444 (National Center for Advancing Translational Sciences (NCATS), 2011)
Where “and” joins values, the source holds several entries; their conditions need not be identical. Identical values can stand only once. Out of some 360,000 compounds screened, about 7,500 (2.1%) were called active. Inconclusive means that the source gave no clear call. Such entries were picked first, then a sample of the others. Calls come from the whole dose curve; as a rule, active = well fitted inhibition curve with a large enough effect; inconclusive = small, poorly fitted or top-dose-only effect, or effect the other way; inactive = flat fitted curve, though single readings scatter. A potency beside an inconclusive call is a rough fit, not a confirmed value.

experiment: Nrf2 qHTS screen for inhibitors; conditions: A549 ARE-Fluc reporter, luciferase luminescence, 18-24 h; series mostly up to 46 µM; note: nearly all actives have a fitted effect of over 60% in size
Procedure, shortened: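 In this cell-based qHTS, ARE-driven firefly luciferase in A549 cells reports Nrf2 activity; the luminescent signal after BugLite lysis is the measured value, with a prior CellTiter-Fluor read for cell health.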
Potency is the fitted concentration of half-maximal effect.

Row | Compound | Potency
1 | CCc1ccc(C(=O)c2cn(CC(=O)Nc3cc(OC)ccc3OC)c3nc(C)ccc3c2=O)cc1 | inconclusive: 14.6 µM [falling, partial curve, poor fit]
2 | CCOC(=O)Cc1csc(NC(=O)c2ccc3c(c2)OCO3)n1 | inconclusive: 29.1 µM [falling, single point]
3 | COc1cccc(NC(=O)CN(C)C(=O)c2cccc(S(=O)(=O)N3c4ccccc4CC3C)c2)c1 (stereo not drawn) | inconclusive: 29.1 µM [falling, single point]
4 | CC(C)C[C@@H](CSc1ccccc1)N1CCN(CCc2ccccc2)CCC1=O | inconclusive: 29.1 µM [activator, single point]
5 | N#Cc1ccc(N2CCN(S(=O)(=O)c3ccc4c(c3)CC(=O)N4)CC2)cc1 | inactive
6 | O=C(NCCCn1ccnc1)c1cc2nc(-c3ccc(Br)cc3)cc(C(F)(F)F)n2n1 | active: 20.6 µM
7 | O=C(NCCCN1CCCCC1)c1ccc2c(c1)NC(=O)c1ccccc1S2 | inactive
8 | COc1cccc(CNC(=O)Cn2c(=O)n(CCC(=O)N3CCCCC3)c(=O)c3sccc32)c1 | inconclusive: 2.06 µM [falling, full curve, poor fit]
9 | COC(=O)CSc1nc(COc2ccccc2)nc2ccccc12 | inconclusive: 13 µM [falling, partial curve]
10 | CCn1ccc(C(=O)NCCCN2CCCC2=O)n1 | inactive
11 | CC(=O)c1c(C)[nH]c(C(=O)OCc2ccccc2F)c1C | inconclusive: 29.1 µM [falling, single point]
12 | Cc1cc(N2C(=O)Cc3ccccc3C2=O)ccc1C(C)C | inconclusive: 2.59 µM [activator, full curve]
13 | Cc1cc2nnc(SCC(=O)Nc3cccc(S(=O)(=O)N4CCOCC4)c3)n2c2ccccc12 | inconclusive: 13 µM [falling, partial curve, poor fit]
14 | CCOc1cc(N2CCOCC2)c(OCC)cc1NC(=O)c1ccc(-n2ccnc2)c([N+](=O)[O-])c1 | inconclusive: 29.1 µM [falling, single point]
15 | O=C(N/N=C/c1ccc([N+](=O)[O-])s1)C(O)c1ccccc1 (stereo not drawn) | active: 5.17 µM
16 | COc1ccc(NS(=O)(=O)c2ccc(N/N=C(\C)c3ccncc3)c([N+](=O)[O-])c2)cc1 | active: 20.6 µM
17 | Cc1ccc(S(=O)(=O)N2CCN(C(=O)[C@H](Cc3ccccc3)NC(=O)c3ccco3)CC2)cc1 | inconclusive: 0.461 µM [falling, full curve, poor fit]
18 | O=C1c2ccccc2C(=O)C1c1ccc2ccccc2n1 | inconclusive: 517 nM [activator, full curve] and inconclusive: 2.06 µM [activator, partial curve, poor fit]
